Laboratory results: the supplement of paper PMC3334620
Over roughly 33,000 sequences, “E-score (-0.5 to 0.5)” has its median near -0.015; the highest 2% begin near 0.3. This is one part of the list.

These sequences were tested against T1, Abf1 (UniProt P14164) (assay: PBM E-score (8-mer binding enrichment) (E-score (-0.5 to 0.5)); higher = stronger / more preferred TF binding). Details: protein concentration: 200 nM; construct: GST-full length.
T1 sequence: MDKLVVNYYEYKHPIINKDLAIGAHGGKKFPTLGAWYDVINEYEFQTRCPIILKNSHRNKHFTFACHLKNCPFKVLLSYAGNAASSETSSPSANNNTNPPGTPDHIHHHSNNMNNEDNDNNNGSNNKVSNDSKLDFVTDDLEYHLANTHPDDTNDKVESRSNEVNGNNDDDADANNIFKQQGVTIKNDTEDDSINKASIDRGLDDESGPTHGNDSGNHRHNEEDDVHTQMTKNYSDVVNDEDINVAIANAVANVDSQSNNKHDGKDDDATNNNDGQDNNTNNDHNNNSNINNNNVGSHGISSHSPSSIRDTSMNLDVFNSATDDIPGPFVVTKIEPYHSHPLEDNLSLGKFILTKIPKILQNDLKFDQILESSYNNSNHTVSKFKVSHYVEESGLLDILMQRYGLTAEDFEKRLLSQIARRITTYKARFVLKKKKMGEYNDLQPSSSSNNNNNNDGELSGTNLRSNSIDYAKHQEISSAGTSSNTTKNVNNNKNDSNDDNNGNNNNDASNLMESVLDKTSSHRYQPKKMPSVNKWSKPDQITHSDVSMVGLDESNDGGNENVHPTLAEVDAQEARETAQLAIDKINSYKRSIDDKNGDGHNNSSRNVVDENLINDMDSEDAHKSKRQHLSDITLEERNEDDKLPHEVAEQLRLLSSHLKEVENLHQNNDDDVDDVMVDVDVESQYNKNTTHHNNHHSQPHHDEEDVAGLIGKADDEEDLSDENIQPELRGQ
Method in brief: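 For each ungapped eight-base word taken together with its reverse complement, the Universal PBM Analysis Suite assigned an E-score. Binding data came from GST-tagged yeast transcription factors, applied at about 100-200 nM, on universal all-10-mer Agilent arrays made double-stranded by primer extension. Fluorescent anti-GST marked bound protein, and scans were normalised with masliner.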

Sequence | PBM E-score
ACGATTAG | 0.29
GTGTTTAA | 0.0683
GCAAAAGA | 0.00896
ATAGACCG | -0.19
CTGTTGCC | -0.278
GACTTTTA | -0.0221
AAGTGATT | 0.347
ATTCCTCC | 0.0441
CTAACGAA | 0.241
GGGTGAAC | -0.104
CTGTTCGA | -0.124
GGTTAATA | 0.0879
CAGCTGGG | -0.242
CTGCCGTC | 0.198
GAAATCCA | 0.0415
CTTCGCTC | -0.04
ATCAAACC | 0.0683
GCATAGCC | -0.198
AGACTACC | -0.0764
AGCACACT | -0.096
AAGCGGTC | -0.106
ATCCAGTC | 0.0249
GCGGTACA | -0.0834
ACGTTCAG | -0.0944
AACGAGTA | 0.0542

Sequence | PBM E-score
CGTGGATA | 0.252
ATCAGATC | -0.0505
CAATTGTA | -0.149
GATGGTAC | -0.128
ACAACCCC | -0.112
ATAGCCTA | -0.138
AGGCTTAT | -0.0827
ATAACGGA | 0.155
GTCTTAGA | 0.00671
CGTGCAAC | 0.247
GCTGCTAA | -0.157
AATACAGG | -0.0816
GGGTTACC | -0.0518
GTTGGCTA | -0.201
ACGCGCCC | -0.156
AACAGATC | 0.0561
CCATTATC | 0.227
CCAGTCCG | -0.16
GCCCTCAC | -0.216
CTCCGCAC | 0.0815
TAATCAGA | 0.0286
CATTTCAC | 0.00776
CATCTGCC | -0.108
ACATGAAT | 0.0379
CGCTCTCC | -0.214

Sequence | PBM E-score
AACTGCTC | -0.177
CCTGGGGC | -0.246
ACGATGGG | -0.08
CTATAACA | -0.0383
AGATTCCC | -0.0908
CCCCTCCA | -0.294
AACGATGC | -0.126
CTCAATGC | -0.0685
AGTTTCAA | -0.0162
ATGTTGAA | 0.104
AAACGAGT | 0.206
CCGTGCCC | -0.126
AGCTCCTC | -0.177
TCCACGAA | 0.352
GACATTAA | 0.227
CCCCACGA | -0.0376
CATGAGGA | -0.107
ACGCAAAT | -0.186
CGTGAAAC | 0.211
ACAATGAT | 0.219
GTGAGGAA | 0.0988
CGACTTGC | -0.129
TACAGCTA | -0.41
AGACAGCG | -0.0189
GTCGGTAA | 0.218

Sequence | PBM E-score
TCGGGCAA | 0.153
GTTGCGAA | 0.0252
AGTCGGCC | -0.0371
GGGTTTAA | -0.0431
CGCACGGC | 0.156
ATATAAAC | 0.0743
ATGATTAC | 0.127
CTTACCAC | -0.105
GAGGAATC | -0.0468
AATACAAC | -0.0317
AATAACCA | 0.116
TAGATATA | 0.0877
AGCCAGTA | -0.102
AAATAAAA | 0.0964
ACATTCAG | -0.0658
GTAATAGA | -0.0206
ATTCTAAC | -0.0235
AAAGAAAA | 0.0211
CGTCTCAA | 0.15
GCTTACGA | -0.071
ATAACATC | 0.192
ACTACGCC | -0.119
CAATAGCA | -0.123
CCCCTTAC | -0.0737
AATTTACA | -0.0267

Reprinted at random: 6 entries already listed
Sequence | PBM E-score
ATAACATC | 0.192
GTTGCGAA | 0.0252
AAAGAAAA | 0.0211
AAATAAAA | 0.0964
CGTGAAAC | 0.211
CCGTGCCC | -0.126

The results go on.

Sequence | PBM E-score
AGTATACG | 0.282
CCTGGGAC | -0.101
TGCGCCAA | 0.0027
CGGGGTCA | -0.0973
GGAAAGAA | -0.0716
ATGGTATA | 0.116
TGGCGCCA | -0.115
ACTGGGTC | -0.146
AACCTCTG | -0.0228
CCCTCCCA | -0.294
AACAAGTA | -0.175
CTTCCGGA | -0.1
AAGATCCA | -0.124
CTTTCTTA | 0.0107
GTTCAATA | 0.094
TATCCCCA | -0.0355
GAATAGTC | -0.0995
GCGTAATA | 0.116
AGTACGCG | 0.0303
GACTCGGC | -0.196
ACCATAGT | -0.0565
GTGTCTTA | 0.0234
GCTATACA | -0.0687
CACTCCAA | -0.0363
CAAAAGTC | 0.0685

Sequence | PBM E-score
ATAGCTCC | -0.209
ATGGGAAA | -0.161
GTAAACAA | 0.202
CGCCATCC | -0.0651
TCACGAGA | 0.179
ACTGAAGC | -0.156
CACTCCTG | -0.207
CGACCTCG | 0.0654
ACAATAAT | 0.0401
CCGCTTTC | -0.159
AGCCGCAA | -0.221
GCACCAGA | -0.123
ATAGTCAG | 0.0806
CAAACGCG | 0.0604
GGGCTTCA | -0.214
ATGCAAAG | -0.0175
ATTACCTC | -0.0832
AACGCGAC | 0.0646
GCGTTAGA | 0.0278
AATTAACG | 0.164
ACGTATAT | 0.193
CCCGAAAC | 0.0884
AATGCACT | -0.0348
TGCCGACA | 0.143
TACAAGCA | 0.0574

Sequence | PBM E-score
CCATTGTA | -0.117
GACAAACA | 0.203
TGATGCAA | 0.0768
ATCTGGTC | -0.134
CAAAATTC | 0.11
CATCCCCG | -0.108
CTGAAGGC | -0.154
TATTTAGA | 0.111
GTCTAGAA | 0.0292
ACCCGGAA | -0.061
AAGAATTA | 0.0283
GAAAGTCA | 0.222
AAAGCCCA | -0.0233
ATGATAGC | 0.24
ACCCTATA | -0.182
ATTCCATC | 0.0906
AGGAAACT | -0.145
GGATGCGA | -0.0633
CTTATCAC | 0.369
CGGGCGGA | -0.157
AAAGATAA | 0.154
GGCCTTAC | -0.115
